Reference: patent publication US10072304B2, “Nuclear localization of Src-family tyrosine kinases is required for growth factor-induced euchromatinization” (National University Corporation Chiba University, priority 2009, dated 2018)
For at least one compound, name, drawing or mass did not settle the structure.

Experiments:
[1] = system: COS-1 cells; test: Quantitation of chromatin condensation levels (S.D. value of PI intensity per pixel) in COS-1 cells; assay type: cell-based, monkey; conditions: 10 μM PP2 or 100 nM wortmannin for 24 h, FIGS. 22 and 26
Method: COS-1, HeLa cells (Japanese Collection of Research Bioresources, Osaka), MCF-7 (provided by H. Saya), A431 (provided by M. N. Fukuda), HEK293 (provided by […]), HCT116 (provided by T. Tomonaga), and SYF ([37]; provided by M. Okada and S. Nada) cells were cultured in Iscove's modified DME containing 5% fetal bovine serum (FBS). Cells were transiently transfected with 0.5 μg of plasmid vector using Trans IT Transfection reagent (Mirus) or with 1 μg of plasmid vector using linear polyethylenimine (25 kDa) (Polyscience, Inc.). For growth factor stimulation, COS-1 cells were starved under low serum conditions (0.05% FBS) for 24 h and restimulated with serum (5% FBS). […] Emission signals were detected between 505 and 525 nm for fluorescein, at more than 560 nm for rhodamine and more than 610 nm for PI [44]. […] Fluorescence intensity plots of anti-histone H3K4me3, anti-ATF-2 […]/71 and anti-HP1α antibody and PI staining (see FIGS. 18B, 19B, and 20B, respectively) were generated using Fluoview version 4.3 software (Olympus, Tokyo). […] Mean fluorescence intensity of tyrosine-phosphorylated proteins in the nucleus was measured using the ImageJ software (National Institutes of Health). […]

[2] = system: COS-1 cells; test: Anti-pTyr immunofluorescent staining of tyrosine phosphorylation in COS-1 cells; assay type: cell-based, monkey; conditions: 10 μM PP2 or 100 nM wortmannin for 24 h, FIG. 22
Method: COS-1, HeLa cells (Japanese Collection of Research Bioresources, Osaka), MCF-7 (provided by H. Saya), A431 (provided by M. N. Fukuda), HEK293 (provided by M. Tagawa), HCT116 (provided by T. Tomonaga), and SYF ([37]; provided by M. Okada and S. Nada) cells were cultured in Iscove's modified DME containing 5% fetal bovine serum (FBS). Cells were transiently transfected with 0.5 μg of plasmid vector using Trans IT Transfection reagent (Mirus) or with 1 μg of plasmid vector using linear polyethylenimine (25 kDa) (Polyscience, Inc.). For growth factor stimulation, COS-1 cells were starved under low serum conditions (0.05% FBS) for 24 h and restimulated with serum (5% FBS). […]
Confocal and Nomarski differential-interference-contrast images were obtained using a Fluoview FV500 confocal laser scanning microscope with a 40×1.00 NA oil and a 100×1.35 NA oil immersion objective (Olympus, Tokyo) and an LSM 510 confocal laser scanning microscope with a 63×1.40 NA oil immersion objective (Zeiss), as described. […] Emission signals were detected between 505 and 525 nm for fluorescein, at more than 560 nm for rhodamine and more than 610 nm for PI [44]. […] Fluorescence intensity plots of anti-histone H3K4me3, anti-ATF-2 pT69/71 and anti-HP1α antibody and PI staining (see FIGS. 18B, 19B, and 20B, respectively) were generated using Fluoview version 4.3 software (Olympus, Tokyo). […]

With `COC[C@H]1OC(=O)c2coc3c2[C@@]1(C)C1=C(C3=O)[C@@H]2CCC(=O)[C@@]2(C)C[C@H]1OC(C)=O` [wortmannin] the “basal levels of chromatin condensation” value [1] was “did not change” and the “basal levels of tyrosine phosphorylation” value [2] was “increased”.
